# PubChem BioAssay AID1439 (NMMLSC, 2008)
# Amino acid sequences for entries named in this document (tags omitted).
# UniProt P09471, whole entry, looked up: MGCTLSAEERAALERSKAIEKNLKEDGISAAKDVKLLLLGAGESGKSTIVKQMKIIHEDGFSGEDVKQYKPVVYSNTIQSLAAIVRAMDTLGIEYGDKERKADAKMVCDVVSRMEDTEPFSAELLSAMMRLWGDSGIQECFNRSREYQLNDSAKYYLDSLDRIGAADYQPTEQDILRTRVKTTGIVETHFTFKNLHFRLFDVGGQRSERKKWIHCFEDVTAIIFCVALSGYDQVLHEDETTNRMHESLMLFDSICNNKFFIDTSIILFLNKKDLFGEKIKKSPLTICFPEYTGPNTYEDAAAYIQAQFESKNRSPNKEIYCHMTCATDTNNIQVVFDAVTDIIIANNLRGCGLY
# About 770 (0.35%) of roughly 220,000 compounds were called active. The shares of active, inactive and inconclusive entries below differ from those in the screen. No stated cut-off is given here; in the data, active means binding response below about 49% or above about 150%; inconclusive means no clear call, values can overlap the other calls; inactive means in between.
# Molecular target: Guanine nucleotide-binding protein G(o) subunit alpha (Homo sapiens) (UniProt P09471)
# Experiment: RGS7-Galphao binding modulators, primary screen, biochemical, multiplexed bead flow cytometry (AID 1439);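 further: fluorescent Galphao held in activated GDP-AlF4 state binding bead-coupled RGS7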
# Conditions: at 10 µM, actives lie on both sides
row,SMILES,binding response (% of control)
1,O=C(COC(=O)c1ccc(Cl)nc1)Nc1ccccc1OC(F)F,inconclusive: 115%
2,O=C(/C=C/c1ccc(F)cc1)c1cc(Br)ccc1O,inconclusive: 113%
3,Cc1ccc(CNC(=O)c2cc3c(s2)CN(Cc2ccccc2)C3)cc1,inactive: 103%
4,CC(O)CCC(=O)NNC1CC(=O)N(c2ccccc2)C1=O (centres undefined),inconclusive: 113%
5,Cn1cnc(S(=O)(=O)Nc2ccc(OC(F)F)cc2)c1,inconclusive: 89.6%
6,CCCC(=O)Nc1ccc(C(=O)Nc2nnc(COC)s2)cc1,inactive: 105%
7,C/C(=C\C(=O)c1sccc1Cl)N(C)C,inconclusive: 88.9%
8,Clc1ccccc1OCc1nn[nH]n1,inconclusive: 96.2%
9,CN(C)c1ccc(N=Nc2nc3ccccc3n2C)cc1,inconclusive: 101%
10,CCCCC(CC)C(=O)Nc1ccc(S(=O)(=O)Nc2nccs2)cc1 (centres undefined),inconclusive: 75.4%
11,Cc1cc2cc(C(=O)N3CCc4c([nH]c5ccccc45)C3c3ccccn3)ccc2o1 (centres undefined),inconclusive: 110%
12,NNC(=O)c1cc(-c2ccccc2)sc1N,inconclusive: 124%
13,Nc1nc(N)c(N=Nc2ccc(SCC(=O)O)cc2)c(=O)[nH]1,inconclusive: 79.4%
14,COc1cc(/C=C/C(=O)O)cc(S(=O)(=O)Nc2cc(Cl)c(Cl)cc2Cl)c1OC,inconclusive: 122%
15,CCCCNC(=O)N1CCN(C/C=C/c2ccccc2)CC1,inconclusive: 118%
16,Cc1ccc(S(=O)(=O)N(C)C)cc1NC(=S)N1CCc2ccccc21,inactive: 95.2%
17,COc1cc(/C=N/n2c(-c3ccccc3)n[nH]c2=S)cc(OC)c1OC,inconclusive: 116%
18,Cn1c(=O)c2cc3c(nc2n(C)c1=O)CC(c1ccccc1)CC3=O (centres undefined),inconclusive: 90.1%
19,Cc1ccc(NC(=O)C(C)N=C2NS(=O)(=O)c3ccccc32)cc1F (centres undefined),inconclusive: 120%
20,OCC1CCCCN1C(=S)Nc1cccc(Cl)c1 (centres undefined),inconclusive: 78.8%

row,SMILES,binding response (% of control)
1,CS(=O)(=O)c1ccc2nc(NC(=O)c3cc(-c4ccccc4)nn3-c3ccccc3)sc2c1,inactive: 103%
2,O=C1C(Cc2ccc(O)cc2)NC(=S)N1Cc1ccccc1 (centres undefined),inconclusive: 124%
3,Cc1ccccc1NC(=S)NC12CN3CN(CN(C3)C1)C2,inactive: 99.7%
4,CCOC(=O)c1c(O)c2cccc3c2n(c1=O)CC3,inconclusive: 91.3%
5,C/C(=N\NC(=O)c1ccc2nc[nH]c2c1)c1ccc([N+](=O)[O-])cc1,inconclusive: 99.3%
6,O=C(O)c1ccc(NCc2nc3ccccc3n2Cc2ccccc2)cc1,inconclusive: 134%
7,COc1ccc(C(=O)Nc2cc(C)on2)cc1S(=O)(=O)N1CC(c2ccccc2)CC1=O (centres undefined),inactive: 108%
8,O=C(O)c1ccc(N/N=C/C=C/c2ccccc2[N+](=O)[O-])cc1,inconclusive: 94%
9,OC(c1ccccn1)(c1ccccn1)c1ccccn1,inactive: 107%
10,CC(C)Nc1nc2cccnc2s1,inconclusive: 114%
11,COC(=O)c1cc(C)nc(Sc2ccccc2NC(C)=O)n1,inconclusive: 132%
12,CC1CC(=O)Nc2ccccc2N1C(=O)Nc1ccc(F)cc1F (centres undefined),inconclusive: 97.2%
13,CCCCN(C(=O)CSc1nnc(Nc2ccccc2)s1)c1c(N)n(CCC)c(=O)[nH]c1=O,inactive: 103%
14,O=C(CN1CCN(c2ccccc2O)CC1)NCCCc1ccccc1,inactive: 99.5%
15,COc1ccc(/C=C/C(=O)OCC(=O)Nc2cc(C(N)=O)cc(C(N)=O)c2)cc1,inconclusive: 118%
16,CC(C)(C)c1ccc(NC(=S)NCCc2ccccn2)cc1,inconclusive: -142%
17,COc1ccc(OC)c(Cc2nnc(CCC(=O)N3CCCCC3)o2)c1,inconclusive: 99.6%
18,COc1ccc(Cl)c(OC)c1C(=O)NC(=O)Nc1c(F)cc(F)cc1F,inconclusive: 103%
19,COc1ccc(C(=O)OCC(=O)NC(=O)NC2CCCC2)c(OC)c1,inconclusive: 94.6%
20,O=C(O)Cc1c(-c2ccccc2)c2cc(Br)ccc2[nH]c1=O,inconclusive: 121%

row,SMILES,binding response (% of control)
1,Cc1nc(COC(=O)c2cc(O)c3ccccc3c2O)cs1,inconclusive: 83%
2,Cc1nc(C)c(-c2ccnc(/N=C/NO)n2)s1,inconclusive: 70.6%
3,COc1ccccc1-n1cc(-c2ccc([N+](=O)[O-])cc2)[nH]c1=S,inconclusive: 97.5%
4,NC(=O)c1ccc(N2CCC(C(N)=O)CC2)c([N+](=O)[O-])c1,inconclusive: 151%
5,COc1ccccc1CNC(=O)c1cc2c(=O)[nH]c3ccccc3c2n1C,inconclusive: 85.8%
6,OCC1CCCN(Cc2cn(Cc3ccccc3)nc2-c2cc3ccccc3o2)C1 (centres undefined),inactive: 92.4%
7,CCOC(=O)C1CCN(C(=S)NC2CCCC2)CC1,inconclusive: 113%
8,Brc1ccc2c(c1)[C@H]1OCC[C@H]1[C@@H](c1cccs1)N2,inconclusive: 103%
9,Cc1nonc1CN(C)C(=O)CC1C(=O)NCCN1Cc1cccc(C(F)(F)F)c1 (centres undefined),inactive: 92%
10,Cc1nc(Nc2ccccc2C(F)(F)F)sc1C(=O)N(C)C,inconclusive: 101%
11,COC(=O)c1ccc(COC(=O)Cc2n[nH]c(=O)c3ccccc23)cc1,inconclusive: 65.5%
12,O=C(COC(=O)c1ccc([N+](=O)[O-])o1)Nc1cccc(S(=O)(=O)N2CCCCC2)c1,inconclusive: 104%
13,COc1ccc(/C=C2/N=C(SC)NC2=O)cc1OC,inconclusive: 153%
14,Cc1ccc2c(c1)nnn2C1CCN(CC(=O)N(c2ccccc2)c2ccccc2)CC1,inconclusive: 106%
15,COCCNc1oc(/C=C/c2ccccc2)nc1C#N,inconclusive: 81.4%
16,Cc1cc2nc(SCC(=O)Nc3ccccc3C(=O)O)[nH]c2cc1C,inactive: 100%
17,CCN(C1=NS(=O)(=O)c2ccccc21)N(CC)S(=O)(=O)c1ccc(C)cc1,inconclusive: 94.6%
18,O=C(COC(=O)c1ccccc1Br)Nc1cc(S(=O)(=O)N2CCOCC2)ccc1N1CCCC1,inconclusive: 122%
19,O=c1[nH]c(-c2ccc3c(c2)OCO3)nc2c1sc(=S)n2-c1ccccc1,inconclusive: 59.3%

# Grouped by structure, the entries above containing a CF3 group (two)
row,SMILES,binding response (% of control)
9,Cc1nonc1CN(C)C(=O)CC1C(=O)NCCN1Cc1cccc(C(F)(F)F)c1 (centres undefined),inactive: 92%
10,Cc1nc(Nc2ccccc2C(F)(F)F)sc1C(=O)N(C)C,inconclusive: 101%
